The target of one assay is T1, EGFP-WWOX (UniProt Q9NZC7).
T1 sequence: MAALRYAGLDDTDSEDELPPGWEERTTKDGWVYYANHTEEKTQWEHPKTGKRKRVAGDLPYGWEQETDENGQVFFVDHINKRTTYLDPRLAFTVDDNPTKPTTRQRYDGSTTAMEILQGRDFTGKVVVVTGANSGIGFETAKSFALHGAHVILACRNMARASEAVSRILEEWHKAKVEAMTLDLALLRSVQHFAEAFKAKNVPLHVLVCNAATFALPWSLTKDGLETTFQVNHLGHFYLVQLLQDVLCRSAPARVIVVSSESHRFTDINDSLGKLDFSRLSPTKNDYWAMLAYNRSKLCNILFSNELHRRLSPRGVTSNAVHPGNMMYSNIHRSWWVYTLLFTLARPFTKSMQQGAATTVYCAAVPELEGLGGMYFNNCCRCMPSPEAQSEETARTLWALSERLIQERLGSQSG
Briefly: FRET or BRET; time-lapse tri-molecular FRET microscopy (ECFP to EGFP to DsRed-monomer, FRETc) in living DU145 cells transiently transfected with the three constructs and treated with hyaluronan (HA). On the technique in general: BRET reads energy transfer from a luciferase to a nearby fluorophore.

Sequences of proteins named here, by UniProt entry; tags and fusion partners are left off.
UniProt Q13485: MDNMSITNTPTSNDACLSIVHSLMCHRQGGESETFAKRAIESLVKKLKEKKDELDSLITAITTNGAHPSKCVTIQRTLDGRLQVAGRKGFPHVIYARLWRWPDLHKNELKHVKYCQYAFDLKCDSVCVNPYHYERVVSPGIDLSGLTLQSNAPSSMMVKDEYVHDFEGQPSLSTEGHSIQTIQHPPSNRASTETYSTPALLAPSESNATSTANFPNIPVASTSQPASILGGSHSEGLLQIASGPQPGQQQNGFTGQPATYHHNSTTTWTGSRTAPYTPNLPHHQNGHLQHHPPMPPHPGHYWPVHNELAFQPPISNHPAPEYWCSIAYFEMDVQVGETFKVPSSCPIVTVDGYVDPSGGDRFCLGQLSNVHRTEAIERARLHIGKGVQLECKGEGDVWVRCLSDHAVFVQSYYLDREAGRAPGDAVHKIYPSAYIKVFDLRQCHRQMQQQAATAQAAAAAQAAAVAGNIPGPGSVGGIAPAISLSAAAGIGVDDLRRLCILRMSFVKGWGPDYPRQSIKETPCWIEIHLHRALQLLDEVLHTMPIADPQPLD

Assay [1] concerns the target ECFP-Smad4 (UniProt Q13485). Briefly: FRET or BRET; FRETc measured for cyan to green fluorescence (ECFP to EGFP) in living DU145 cells transfected with ECFP-Smad4, EGFP-WWOX and DsRed-monomer-p53 and treated with HA, time-lapse.
Assay [2] concerns the target ECFP-Smad4 (UniProt Q13485). Briefly: FRET or BRET; time-lapse tri-molecular FRET microscopy (ECFP to EGFP to DsRed-monomer, FRETc) in living DU145 cells transiently transfected with the three constructs and treated with hyaluronan (HA).
Assay [3] concerns the target ECFP-Smad4 (UniProt Q13485). As to the kind of experiment: FRET or BRET; time-lapse two-protein FRET microscopy (ECFP donor, excitation 440 nm; EYFP acceptor, 535 nm; FRETc) in living NCI-H1299 cells transfected with ECFP-Smad4 and EYFP-TIAF1 and treated with TGF-β1 (5 ng/ml).

No constants are given. Whether binding was seen depends on the method and setting. Binding seen in cells or lysates may run through a third protein. Some results given as binding are weak or reduced against the parent protein; the word gives no strength. Where a sequence is shown, tags or fusion partners need not be part of it.

Consider “DsRed-monomer p53 (from UniProt P04637 1-393)”, for which the binding result with EGFP-WWOX was “binds”.

B1: EGFP-WWOX (protein, UniProt Q9NZC7 1-414)
chain: T1 sequence
On to B1, for which the binding result in the assay with ECFP-Smad4 [1] and with ECFP-Smad4 [2] was “binds” throughout.

B2: EYFP-TIAF1 (protein, UniProt O95411 1-115)
chain: MSSPSSPFREQSFLCAAGDAGEESRVQVLKNEVRRGSPVLLGWVEQAYADKCVCGPSAPPAPTPPSLSQRVMCNDLFKVNPFQLQQFRADPSTASLLLCPGGLDHKLNLRGKAWG
For B2, in the assay with ECFP-Smad4 [3], the binding result is listed as “binds”.

(Values after PMC5864757.)
